Results taken from the supplement of paper PMC8616043.
Where a name gives a salt, the structure may show the parent alone. The list shows a part of the results. Single values are uncertain here, since repeats match poorly.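 The cells are human U-2 OS cells that stably carry a GFP sensor with a nuclear import signal and a classical export signal. They were transfected to make PR50, a 50-repeat proline–arginine dipeptide protein from the ALS/FTD gene C9ORF72. Each well's nuclear-minus-cytoplasm GFP signal was scaled from in-plate DMSO (low) to PR-only wells (high), then scored against the other test wells on the plate; compounds scoring well below zero were called hits that reverse the PR effect.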

System: U-2 OS NCT-C biosensor cells expressing PR50
Experiment: Z-score of normalised NCT-C biosensor translocation index in PR50-expressing cells; higher = more nuclear biosensor (more disrupted nuclear export)
Details: 3 µM; 24 h

**Q.** With `COc1cc2c(NC3CCN(C4CCCCC4)CC3)nc(N3CCCN(C(C)C)CC3)nc2cc1OCCCN1CCCCC1` as the molecule, how does the Z-score read?
**A.** inactive: -0.405

**Q.** `CCN1CCCC1CNC(=O)c1cc(S(N)(=O)=O)ccc1OC` (racemic) [(±)-Sulpiride] was tested. Which Z-score did it give?
**A.** inactive: 1.78

**Q.** `O=C(O)c1cc(=O)c2c(OCC(O)COc3cccc4oc(C(=O)O)cc(=O)c34)cccc2o1` [Cromolyn·Na (Disodium Cromoglycate)] was tested. Which Z-score did it give?
**A.** inactive: 1.2

**Q.** How did the Z-score turn out when `CC[C@]12CCCN3CCc4c(n(c5ccccc45)[C@@](O)(C(=O)OC)C1)[C@@H]32` [Vincamine] was run?
**A.** inactive: 0.566

**Q.** How did the Z-score turn out when `CCOC(=O)c1ccc(C#Cc2ccc3c(c2)C(C)(C)CCS3)nc1` [Tazarotene] was run?
**A.** inactive: -0.104

**Q.** Which Z-score does the source give for `CC(C)N(CCC(=O)c1ccc2ccccc2c1)Cc1ccccc1` here?
**A.** inactive: -0.807

**Q.** With `O=c1cc(O)cc(/C=C/c2ccc(O)c(O)c2)o1` [Hispidin] as the molecule, how does the Z-score read?
**A.** inactive: 0.12

**Q.** `COc1c(O)cc(O)c2c(=O)cc(-c3ccccc3)oc12` [Wogonin] was tested. Which Z-score did it give?
**A.** inactive: -0.411

**Q.** How did the Z-score turn out when `CCN1CCC[C@H]1CNC(=O)c1cc(S(N)(=O)=O)ccc1OC` [(S)-(-)-Sulpiride] was run?
**A.** inactive: -0.69

**Q.** Which Z-score does the source give for `Nc1ccc(S(N)(=O)=O)cc1` [Sulfanilamide] here?
**A.** inactive: -0.236

**Q.** With `CCOc1nc2cccc(C(=O)OC(C)OC(=O)OC3CCCCC3)c2n1Cc1ccc(-c2ccccc2-c2nn[nH]n2)cc1` (stereo unspecified) [Candesartan cilexetil] as the molecule, how does the Z-score read?
**A.** inactive: 1.52

**Q.** For `COc1ccc(-c2oc3c(CC=C(C)C)c(O)cc(O)c3c(=O)c2O)cc1` [Icaritin], which Z-score is on record?
**A.** inactive: 0.281

**Q.** `N[C@@H](CCC(=O)N[C@@H](CSN=O)C(=O)NCC(=O)O)C(=O)O` [S-Nitroso glutathione] was tested. Which Z-score did it give?
**A.** inactive: -0.173

**Q.** How did the Z-score turn out when `CC(CCc1ccc(O)cc1)NCCc1ccc(O)c(O)c1` (stereo unspecified) [Dobutamine hydrochloride] was run?
**A.** inactive: -0.8

**Q.** How did the Z-score turn out when `CC(CCc1ccc(O)cc1)NCCc1ccc(O)c(O)c1` (stereo unspecified) [Dobutamine·HCl] was run?
**A.** inactive: -0.0787

**Q.** How did the Z-score turn out when `CC1=C(C(=O)O)N2C(=O)[C@@H](NC(=O)[C@H](N)c3ccc(O)cc3)[C@H]2SC1` [Cefadroxil Monohydrate] was run?
**A.** inactive: -0.125

**Q.** Which Z-score does the source give for `CC(C)(Oc1ccc(C2CC2(Cl)Cl)cc1)C(=O)O` (stereo unspecified) [Ciprofibrate] here?
**A.** inactive: 1.77

**Q.** Which Z-score does the source give for `Cn1c(=O)c2c(ncn2CC(O)CO)n(C)c1=O` (stereo unspecified) [Dyphylline] here?
**A.** inactive: -0.486

**Q.** How did the Z-score turn out when `NC(=O)c1cccnc1` [Nicotinamide] was run?
**A.** inactive: -0.383

**Q.** `COc1cccc(OC)c1-c1cc(C(=O)NC2(C(=O)O)C3CC4CC(C3)CC2C4)nn1-c1ccc(C(=O)N(C)CCCN(C)C)cc1C(C)C` (stereo unspecified) was tested. Which Z-score did it give?
**A.** inactive: -0.0485

**Q.** `NCc1c[nH]c(=S)n1[C@H]1CCc2c(F)cc(F)cc2C1` [Nepicastat hydrochloride] was tested. Which Z-score did it give?
**A.** inactive: 0.648

**Q.** For `CNC1(C)C2CCC(C2)C1(C)C` (stereo unspecified) [Mecamylamine hydrochloride], which Z-score is on record?
**A.** inactive: 0.449

**Q.** How did the Z-score turn out when `Nc1cc(F)ccc1NC(=O)c1ccc(CNC(=O)/C=C/c2cccnc2)cc1` [Chidamide] was run?
**A.** inactive: -0.575

**Q.** Which Z-score does the source give for `NS(=O)(=O)c1cc2c(cc1C(F)(F)F)NC(Cc1ccccc1)NS2(=O)=O` (stereo unspecified) [Bendroflumethiazide] here?
**A.** inactive: -0.0282

**Q.** `CC(CN1c2ccccc2Sc2ccccc21)N(C)C` (stereo unspecified) [Promethazine hydrochloride] was tested. Which Z-score did it give?
**A.** inactive: -0.193

**Q.** `CC(CN1c2ccccc2Sc2ccccc21)N(C)C` (stereo unspecified) [Promethazine·HCl] was tested. Which Z-score did it give?
**A.** inactive: 1.92

**Q.** Which Z-score does the source give for `O=C(c1ccc(OCCN2CCCCC2)cc1)c1c(-c2ccc(O)cc2)sc2cc(O)ccc12` [Raloxifene·HCl] here?
**A.** inactive: 2

**Q.** For `O=C(c1ccc(OCCN2CCCCC2)cc1)c1c(-c2ccc(O)cc2)sc2cc(O)ccc12` [Raloxifene hydrochloride], which Z-score is on record?
**A.** inactive: -0.805

**Q.** With `CN(C)c1nc(N)c(C(=O)NC(=N)N)nc1Cl` [5-(N,N-Dimethyl) amiloride hydrochloride] as the molecule, how does the Z-score read?
**A.** inactive: 0.173

**Q.** With `Cc1cc(Cc2cc(C)cc(C(C)(C)C)c2O)c(O)c(C(C)(C)C)c1` as the molecule, how does the Z-score read?
**A.** inactive: -0.771

**Q.** For `CCn1cc(C(=O)O)c(=O)c2cc(F)c(N3CCNCC3)cc21` [Norfloxacin], which Z-score is on record?
**A.** inactive: 0.0911

**Q.** For `N[C@H](C(=O)O)[C@H](Cc1ccccc1)C(=O)O` [L-beta-threo-benzyl-aspartate], which Z-score is on record?
**A.** inactive: -0.961

**Q.** How did the Z-score turn out when `Cc1nc2c(OCc3ccccc3)cccn2c1CC#N` was run?
**A.** inactive: -0.586

**Q.** `CCOC(=O)C1=C(C)NC(C)=C(C(=O)OC)C1c1cccc([N+](=O)[O-])c1` (stereo unspecified) [Nitrendipine] was tested. Which Z-score did it give?
**A.** inactive: 0.339

**Q.** `CCCOC(=O)c1c(-c2ccccc2)nc(CC)c(C(=O)SCC)c1CCC` was tested. Which Z-score did it give?
**A.** inactive: -0.101

**Q.** How did the Z-score turn out when `CC(C)c1nc(CN(C)C(=O)N[C@H](C(=O)N[C@@H](Cc2ccccc2)C[C@H](O)[C@H](Cc2ccccc2)NC(=O)OCc2cncs2)C(C)C)cs1` [Ritonavir] was run?
**A.** inactive: -0.441

**Q.** For `COc1ccccc1OCCNCC(O)COc1cccc2[nH]c3ccccc3c12` (stereo unspecified) [Carvedilol], which Z-score is on record?
**A.** inactive: -0.686

**Q.** Which Z-score does the source give for `CC(C)[C@H]1CC[C@H](C(=O)N[C@H](Cc2ccccc2)C(=O)O)CC1` [Nateglinide] here?
**A.** inactive: 0.0838

**Q.** How did the Z-score turn out when `COC(=O)/C(=C1/OC(=O)C(c2ccccc2)=C1O)c1ccccc1` [Vulpinic acid] was run?
**A.** inactive: -0.935

**Q.** With `COc1c(O)cc2c(c1O)[C@@H]1O[C@H](CO)[C@@H](O)[C@H](O)[C@H]1OC2=O` [Bergenin] as the molecule, how does the Z-score read?
**A.** inactive: -0.544

**Q.** How did the Z-score turn out when `Nc1ncnc2c1ncn2[C@@H]1O[C@H](C[C@@H](N)CC[C@H](N)C(=O)O)[C@@H](O)[C@H]1O` [Sinefungin] was run?
**A.** inactive: -1.86

**Q.** With `CCN1CCCC1CNC(=O)c1cc(S(=O)(=O)CC)c(N)cc1OC` (stereo unspecified) [Amisulpride] as the molecule, how does the Z-score read?
**A.** inactive: -0.361

**Q.** Which Z-score does the source give for `S=P(N1CC1)(N1CC1)N1CC1` [Thiotepa] here?
**A.** inactive: -0.0511

**Q.** Which Z-score does the source give for `O=C1CCc2c(ccc3ccccc23)O1` [Splitomicin] here?
**A.** inactive: -0.669

**Q.** `Cn1c(=O)c2c(ncn2C)n(C)c1=O` [Caffeine] was tested. Which Z-score did it give?
**A.** inactive: 1.32

**Q.** Which Z-score does the source give for `Cc1c(OCC(F)(F)F)ccnc1C[S+]([O-])c1nc2ccccc2[nH]1` (stereo unspecified) [Lansoprazole] here?
**A.** inactive: 0.403
